Source: PubChem BioAssay AID504786 (Drosophila RNAi Screening Center, 2011)
Purpose: 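Positive regulators of HIF-driven reporter output in Drosophila cells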 (primary screen). Cell system: Drosophila S2 cells with a stable HIF luciferase reporter. Knock-down reagent: long dsRNA against Drosophila genes, about 0.2 µg dsRNA per well of a 384-well plate. Duration: three days of knock-down, then 20 h of DFO before reading. Conditions: desferrioxamine (DFO) at 100 µM, an iron chelator that mimics hypoxia, for 20 h. Read-out: 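Firefly luciferase driven by the mouse ldh-a hypoxia-response element, measured after 20 h of 100 µM DFO; z-scores per plate, higher means more signal lost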. Direction: z-score: higher = stronger loss of HIF reporter signal.
In all, the deposit lists about 21,000 reagents; below is an unselected part of those that have a named target and a result. 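Primary screen; positive scores mean lost reporter signal, so the sign may be inverted from the usual convention.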 The numbers tell different reagents against one gene apart. Names joined by + are all predicted targets of the reagent.

| target gene | reagent no. | z-score, replicate 1 | z-score, replicate 2 | z-score, replicate 3 | z-score, replicate 4 |
| --- | --- | --- | --- | --- | --- |
| Zdhhc8 | 1 | 0.8 | 1.8 | – | – |
| Zdhhc8 | 2 | -0.4 | -0.2 | – | – |
| CG5681 | 1 | -0.2 | -0.5 | – | – |
| CG15056 | 1 | -0.3 | -0.2 | – | – |
| CG18139 (retired record) + Hmx | 1 | 0.1 | 0.8 | – | – |
| His2B:CG33894 + His2B:CG33872 + His2B:CG33902 + 20 more | 1 | 0.5 | 0 | – | – |
| CG7054 | 1 | -0.3 | -0.1 | – | – |
| IKKbeta | 1 | -0.2 | -0.1 | – | – |
| Con | 1 | -0.3 | -0.1 | – | – |
| CG42588 | 1 | -0.3 | -0.2 | – | – |
| retinin | 1 | -0.2 | -0.7 | – | – |
| l(2)37Bb | 1 | -0.3 | -0.4 | -0.3 | 0.5 |
| CG14253 | 1 | -0.3 | -0.4 | – | – |
| CG11131 | 1 | -0.2 | -0.2 | – | – |
| CG32599 | 1 | -0.2 | 0 | – | – |
| PPO3 | 1 | -0.3 | -0.3 | – | – |
| ZnT77C | 1 | -0.3 | -0.4 | – | – |
| ZnT77C | 2 | -0.2 | -0.5 | – | – |
| CG3611 | 1 | 0.1 | -0.1 | – | – |
| CG9107 | 1 | 0.5 | 0.7 | – | – |
| CG12133 | 1 | -0.2 | -0.3 | – | – |
| CG14551 | 1 | -0.3 | -0.6 | – | – |
| Pcif1 | 1 | -0.4 | -0.7 | – | – |
| hubl | 1 | -0.3 | -0.5 | – | – |
| Ac76E | 1 | 0.5 | 0.4 | – | – |
| Ac76E | 2 | -0.3 | -0.5 | – | – |
| Fer2 | 1 | 0.2 | -0.2 | – | – |
| CG8858 | 1 | -0.4 | -0.1 | – | – |
| mRpL21 | 1 | 0.9 | 1.1 | – | – |
| cid | 1 | -0.1 | 0 | – | – |
| cid | 2 | -0.3 | -0.2 | – | – |
| CG7420 | 1 | -0.4 | -0.5 | – | – |
| eEF1delta | 1 | -0.3 | -1.1 | – | – |
| MrgBP | 1 | 0.5 | 0.5 | – | – |
| Phax | 1 | -0.3 | -0.5 | – | – |
| CG6738 | 1 | -0.5 | -0.6 | – | – |

Just “z-score, replicate 2” (16 entries from above):
CG7054	-0.1
IKKbeta	-0.1
Con	-0.1
CG42588	-0.2
retinin	-0.7
l(2)37Bb	-0.4
CG14253	-0.4
CG11131	-0.2
CG32599	0
PPO3	-0.3
ZnT77C #1	-0.4
ZnT77C #2	-0.5
CG3611	-0.1
CG9107	0.7
CG12133	-0.3
CG14551	-0.6

The results go on:
| target gene | reagent no. | z-score, replicate 1 | z-score, replicate 2 | z-score, replicate 3 | z-score, replicate 4 |
| --- | --- | --- | --- | --- | --- |
| CG13229 | 1 | -0.1 | -0.2 | – | – |
| CG17944 | 1 | -0.1 | 0.1 | – | – |
| Cep97 | 1 | -0.4 | -0.5 | – | – |
| CG3625 | 1 | 0 | 0.5 | – | – |
| CG3625 | 2 | -0.2 | 0.5 | – | – |
| CG17375 | 1 | -0.3 | -0.1 | – | – |
| CG9154 | 1 | -0.3 | -0.2 | – | – |
| Nuak | 1 | -0.3 | -0.2 | – | – |
| Nuak | 2 | -0.4 | -0.4 | – | – |
| Nuak | 3 | -0.3 | -0.3 | – | – |
| CG8773 | 1 | 0.2 | 0.2 | – | – |
| dgt4 | 1 | -0.1 | -0.1 | – | – |
| CG15140 | 1 | -0.3 | -0.4 | – | – |
| TfAP-2 | 1 | -0.3 | -0.2 | – | – |
| CG31287 | 1 | -0.2 | -0.3 | – | – |
| Nup44A | 1 | 0.6 | 0.4 | – | – |
| Decay | 1 | -0.4 | -0.5 | – | – |
| CG10909 | 1 | -0.1 | 0 | – | – |
| Rab11 | 1 | 1.3 | 0.4 | – | – |
| Mon1 | 1 | -0.2 | -0.3 | – | – |
| sev | 1 | -0.3 | -0.3 | – | – |
| CG13895 | 1 | 0.1 | 0 | – | – |
| pk | 1 | -0.3 | -0.5 | – | – |
| pk | 2 | -0.2 | 0 | – | – |
| GstE2 | 1 | -0.2 | -0.3 | – | – |
| CG42650 | 1 | -0.2 | -0.3 | – | – |
| cass | 1 | 0.3 | 0.8 | – | – |
| CTCF | 1 | -0.4 | -0.4 | – | – |
| mxc | 1 | -0.4 | 1.6 | – | – |
| CG10749 | 1 | -0.3 | -0.7 | – | – |
| CG10353 | 1 | 0 | 0.4 | – | – |
| uzip | 1 | -0.1 | -0.2 | – | – |
| CR18275 | 1 | -0.4 | 0.3 | – | – |
| CG13690 | 1 | -0.3 | 0.3 | – | – |
| CG18787 + CG18789 | 1 | 0.1 | 2.1 | – | – |
| Fak | 1 | -0.4 | -0.7 | – | – |
| CG6865 | 1 | -0.2 | 0.1 | – | – |
| CG7366 | 1 | -0.4 | -0.4 | – | – |
| CG13203 | 1 | 0 | -0.5 | – | – |
| l(2)k05819 | 1 | -0.3 | -0.5 | – | – |
| Nost | 1 | -0.3 | 0.5 | – | – |
| Nost | 2 | -0.3 | 0.2 | – | – |
| chp | 1 | 0.5 | -0.5 | – | – |
| SMSr | 1 | -0.2 | -0.3 | – | – |
| SMSr | 2 | -0.2 | 1.2 | – | – |
| CG14419 | 1 | -0.2 | -0.6 | – | – |
| RhoL | 1 | 0 | 0.2 | – | – |
| nudC | 1 | 1.2 | -0.3 | – | – |
| nudC | 2 | -0.4 | -0.8 | – | – |
| Grip128 | 1 | -0.2 | -0.4 | – | – |
| CG11333 | 1 | -0.4 | 0.1 | – | – |
| Ddx1 | 1 | -0.3 | -0.4 | – | – |
| Klp67A + CG34456 | 1 | -0.2 | 0 | – | – |
| Nup214 | 1 | -0.1 | 0.3 | – | – |
| Ekar | 1 | -0.3 | -0.4 | – | – |
| CG14795 | 1 | 0.1 | 1.8 | – | – |
| Mtmr6 | 1 | -0.5 | -0.8 | – | – |
| Duox | 1 | -0.3 | -0.8 | – | – |
| Boot | 1 | -0.3 | -0.4 | – | – |
| Listericin | 1 | -0.3 | -0.4 | – | – |
| CG42748 | 1 | -0.1 | -0.3 | – | – |
| CG42748 | 2 | -0.2 | -0.4 | – | – |
| CG42748 | 3 | -0.2 | -0.2 | – | – |
| lost | 1 | -0.6 | -0.2 | – | – |
| lost | 2 | -0.3 | -0.5 | -0.1 | -0.3 |
| CG13681 (retired record) | 1 | -0.1 | 0.5 | – | – |
| CG13681 (retired record) | 2 | -0.2 | 0.6 | – | – |
| CG13681 (retired record) | 3 | -0.3 | 0 | – | – |
| CG13681 (retired record) | 4 | -0.4 | 0.3 | – | – |
| CG13681 (retired record) | 5 | -0.1 | 0.3 | – | – |
| CG13681 (retired record) | 6 | 0 | 0 | – | – |
